{
  "source": "patent US11046949B2",
  "about": "“Method and system for microbial lysis using periodates” (priority 2014, dated 2021)",
  "test_system": "Mycobacteria",
  "experiment": "Release of DNA from Mycobacteria by solvents, detergents, formic acid, borate",
  "type": "cell-based, Mycobacterium",
  "details": "elevated temperatures, even at 100° C.",
  "description": "The hardy cell wall of Mycobacterium consists of a thick, waxy, hydrophobic, mycolate layer and a peptidoglycan layer held together by polysaccharide. […] Similarly, various detergents (e.g., SDS), formic acid, and borate were tested at elevated temperatures.",
  "note": "Some of these results come from one statement about several compounds together.",
  "data": [
    {"molecule": "CCCCCCCCCCCCOS(=O)(=O)[O-].[Na+]", "note": "[SDS, sodium dodecyl sulfate]", "values": [
      {"measurement": "% of DNA released", "result": "≤ 10", "unit": "%"}
    ]}
  ]
}
